Among the data in article PMC6783463 are binding values, retold here.

Chains of the proteins cited; added tags and fusions are not shown. Residues count along the entry.
UniProt Q03431, residues 27-593: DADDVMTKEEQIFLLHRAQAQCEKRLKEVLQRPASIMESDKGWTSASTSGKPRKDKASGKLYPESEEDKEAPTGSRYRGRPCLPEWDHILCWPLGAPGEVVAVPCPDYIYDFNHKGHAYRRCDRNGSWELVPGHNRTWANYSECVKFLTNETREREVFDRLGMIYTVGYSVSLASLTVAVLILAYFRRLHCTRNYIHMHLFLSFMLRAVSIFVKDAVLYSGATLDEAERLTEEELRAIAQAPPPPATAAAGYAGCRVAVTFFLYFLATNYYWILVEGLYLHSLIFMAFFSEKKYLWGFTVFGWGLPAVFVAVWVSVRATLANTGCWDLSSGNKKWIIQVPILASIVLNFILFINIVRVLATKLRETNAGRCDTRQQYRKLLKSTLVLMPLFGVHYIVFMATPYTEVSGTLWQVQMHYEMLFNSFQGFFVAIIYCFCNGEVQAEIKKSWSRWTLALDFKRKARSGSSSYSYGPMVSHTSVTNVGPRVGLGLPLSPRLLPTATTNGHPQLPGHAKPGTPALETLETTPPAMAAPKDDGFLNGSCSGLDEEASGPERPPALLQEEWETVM
UniProt P32121: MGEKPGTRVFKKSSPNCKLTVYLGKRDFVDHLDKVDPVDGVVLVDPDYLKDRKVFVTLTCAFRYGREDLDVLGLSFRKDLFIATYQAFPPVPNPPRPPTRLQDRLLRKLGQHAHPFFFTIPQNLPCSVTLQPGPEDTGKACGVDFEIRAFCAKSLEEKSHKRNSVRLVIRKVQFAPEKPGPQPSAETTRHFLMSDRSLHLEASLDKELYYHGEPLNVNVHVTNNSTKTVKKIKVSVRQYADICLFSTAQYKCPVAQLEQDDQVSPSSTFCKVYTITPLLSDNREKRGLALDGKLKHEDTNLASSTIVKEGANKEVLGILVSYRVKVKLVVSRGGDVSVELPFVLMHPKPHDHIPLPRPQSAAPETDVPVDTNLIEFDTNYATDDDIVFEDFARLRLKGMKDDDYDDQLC

Assay [1] has as its target PTH1R expressed in PathHunter β-arrestin cells (UniProt Q03431). As to the kind of experiment: split reporter; PathHunter β-arrestin eXpress kit, enzyme fragment complementation (β-galactosidase) in cells; agonist mode: increasing concentrations of PTH (1–34) or ECD-scFvhFc, 90 min at 37 °C; luminescence.
Assay [2] has the same target. The assay is described as follows: condition: only without PTH (1–34), ECD-scFvhFc added alone; split reporter; PathHunter β-arrestin eXpress kit, enzyme fragment complementation (β-galactosidase) in cells; agonist mode: increasing concentrations of PTH (1–34) or ECD-scFvhFc, 90 min at 37 °C; luminescence.

No constants are given. Whether binding was seen depends on the method and setting. Binding seen in cells or lysates may run through a third protein. Some entries that bind do so weakly or less than the wild type.

Regarding “β-arrestin 2 (from UniProt P32121 1-409)”, the binding result is recorded as “binds” in assay [1] and “no binding” in assay [2].
